PubChem BioAssay AID1347076 (National Center for Advancing Translational Sciences (NCATS), 2019)
Out of some 400,000 compounds screened, about 13,000 (3.2%) were called active. Inconclusive results, whose numbers are uncertain, are shown with a selection of clear calls. Calls come from the whole dose curve; as a rule, active = well fitted cell-killing curve with a large enough effect; inconclusive = small, poorly fitted or top-dose-only effect, or effect the other way; inactive = flat fitted curve, though single readings scatter. Where the call is inconclusive, the potency comes from a doubtful curve fit.
Potency is the fitted concentration of half-maximal effect.

Experiment: qHTS assay for MDR1-selective chemotherapeutics: Primary screen using the drug-selected MDR subline cells KB-V1; note: nearly all actives have a fitted effect of over 60% in size
Details: KB-V1 MDR cells viability, CellTiter-Glo, 72 h; series mostly up to 46.1 µM
Summary of the method: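 KB-V1 MDR subline cells in DMEM (phenol-red free, 10% FBS) exposed to compounds in qHTS concentration series for 72 h at 37 degrees C. Viability read by CellTiter-Glo luminescence; concentration-effect curves fitted after normalization and correction.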
For `CCCOC1CCCN(C(=O)c2ccc(OC3CCN(C(=O)COC)CC3)cc2)C1` (centres undefined), the Potency was inconclusive: 29.1 µM [cytotoxic, single point]. With `O=C(/C=C/c1ccccn1)c1cc(Cl)cc(Cl)c1O` the Potency was inconclusive: 29.1 µM [cytotoxic, single point]. In the case of `C[C@@H](NC(=O)c1nc[nH]c1C(=O)N[C@@H](CCCCNC(=O)OC(C)(C)C)C(=O)OC(C)(C)C)c1ccccc1`, the Potency is reported as inconclusive: 20.6 µM [cytotoxic, single point]. For `Cc1ccsc1C(=O)OCC(=O)Nc1c(C)n(C)n(-c2ccccc2)c1=O`, the Potency was inconclusive: 16.4 µM [cytotoxic, single point]. With `O=C(NCc1ccccc1)c1cccc(COc2ccc(Cl)cc2)c1` the Potency was active: 18.4 µM. With `O=C(C1CCN(S(=O)(=O)c2cccs2)CC1)N1CCc2ccccc2C1` the Potency was inconclusive: 32.6 µM [cytotoxic, partial curve, poor fit]. In the case of `CC(C)Cc1nnc(NC(=O)CCC(=O)Nc2ccccc2)s1`, the Potency is reported as inconclusive: 29.1 µM [rising, single point]. With `CCOC(=O)C1(CC)NC(c2ccc(OC)cc2OC)C2C(=O)N(C)C(=O)C21` (centres undefined) the Potency was “inactive”. In the case of `CC1CCc2cc(F)ccc2N1C(=O)CSc1nnc2c3ccccc3n(C)c2n1` (centres undefined), the Potency is reported as inconclusive: 7.31 µM [cytotoxic, partial curve]. With `O=C(CCS(=O)(=O)Cc1ccccc1)N1CCN(Cc2ccccc2)CC1` the Potency was inconclusive: 9.2 µM [cytotoxic, partial curve, poor fit]. With `Cc1ccc2nc(N3CC(=O)Nc4ccccc43)nc(-c3ccccc3)c2c1` the Potency was inconclusive: 29.1 µM [cytotoxic, single point]. For `O=C1c2ccccc2C(=O)c2c1ccc(C(=O)N1CCCCC1)c2NCCO`, the Potency was inconclusive: 8.2 µM [cytotoxic, partial curve]. With `COc1ccc(NC(=O)c2cc(S(=O)(=O)Nc3ccc(OC)cc3)cs2)cc1` the Potency was active: 20.6 µM. With `Cc1ccc(S(=O)(=O)Nc2ccc3c(c2)C(=O)N([C@H](C)CO)C[C@H](C)[C@H](CN(C)C(=O)Nc2cccc4ccccc24)OCCCC[C@@H](C)O3)cc1` the Potency was inconclusive: 2.06 µM [rising, partial curve, poor fit]. In the case of `COc1cccc(C(=O)Nc2ccccc2SCc2cc(=O)c3cccc(C)c3[nH]2)c1`, the Potency is reported as “inactive”. For `N#Cc1c[nH]n2c(NC3CCCC3)c(-c3ccc(Br)cc3)nc12`, the Potency was “inactive”. For `CCOC(=O)C1CCN(c2nc3c(C)cccn3c(=O)c2/C=C(\C#N)S(=O)(=O)c2ccccc2)CC1`, the Potency was “inactive”. For `Cc1ccccc1NC(=O)CSc1nc2ccccc2c(=O)n1C`, the Potency was inconclusive: 11.6 µM [cytotoxic, partial curve, poor fit]. In the case of `CC(C)OCCCNC(=O)C1CCN(S(=O)(=O)N2CCCC2)CC1`, the Potency is reported as “inactive”. With `CNc1ccccc1C(C)(C)c1cc(-c2cccc(OC)c2)no1` the Potency was “inactive”. With `COc1ccc(C(CNC(=O)c2ccc(NS(=O)(=O)c3ccc4c(c3)OCCO4)cc2)N(C)C)cc1` (centres undefined) the Potency was inconclusive: 29.1 µM [rising, single point]. In the case of `CC1CCC(C(=O)c2c(O)c3ccccc3oc2=O)CC1` (centres undefined), the Potency is reported as active: 3.66 µM. With `COc1cc(NC(=O)c2ccc(S(=O)(=O)N(C)c3ccccc3)cc2)cc(OC)c1` the Potency was inconclusive: 10.3 µM [cytotoxic, partial curve]. With `O=C(Nc1cccc(S(=O)(=O)Nc2ccc(Cl)cc2)c1)c1ccccn1` the Potency was inconclusive: 8.2 µM [cytotoxic, single point]. For `COc1ccc(C(C(=O)NCc2ccccc2)n2c(=O)c(-c3ccccc3)nc3ccccc32)cc1` (centres undefined), the Potency was inconclusive: 3.66 µM [cytotoxic, partial curve]. For `Fc1ccc(N2CCN(Cc3nnc(-c4ccccc4)o3)CC2)cc1`, the Potency was inconclusive: 0.0092 µM [rising, full curve]. In the case of `O=C(CC(Nc1cccc(Cl)c1Cl)C(=O)O)c1ccccc1` (centres undefined), the Potency is reported as inconclusive: 23.1 µM [rising, single point]. With `COc1ccccc1-c1cc(C(F)(F)F)n2ncc(C(=O)N3CCc4ccccc4C3)c2n1` the Potency was inconclusive: 5.8 µM [cytotoxic, partial curve]. For `COC(=O)c1ccc(Cl)c(NS(=O)(=O)c2ccc3c(c2)OCCO3)c1`, the Potency was active: 9.2 µM. For `COc1ccc(N=C(c2ccccc2)c2c(C)[nH]n(-c3ccccc3)c2=O)c(OC)c1`, the Potency was inconclusive: 13 µM [cytotoxic, partial curve, poor fit]. For `CC1NC(=O)c2cc3ccccc3cc2-n2c1nc1ccc(F)cc1c2=O` (centres undefined), the Potency was “inactive”. In the case of `COc1cccc(C2=NOC(C(=O)Nc3cc(OC)c(OC)c(OC)c3)C2)c1` (centres undefined), the Potency is reported as active: 20.6 µM. With `COc1ccc(C(=O)CC(=O)c2ccccc2)cc1` the Potency was inconclusive: 29.1 µM [cytotoxic, partial curve, poor fit]. For `CN(C)CCn1ccc(O)c(Cc2ccc(Cl)cc2)c1=O`, the Potency was inconclusive: 23.1 µM [rising, single point]. For `O=C(NN1C(=O)C2C3C=CC(C4CC34)C2C1=O)c1ccc(Br)cc1` (centres undefined), the Potency was inconclusive: 16.4 µM [cytotoxic, single point]. In the case of `CC(=O)c1ccc(NC(=O)CSc2nc(N3CCOCC3)nc(N3CCOCC3)n2)cc1`, the Potency is reported as inconclusive: 8.2 µM [cytotoxic, partial curve, poor fit]. For `CCOC(=O)/C(=C\c1cccc(O)c1)c1nc2sc(C)c(C)c2c(=O)[nH]1`, the Potency was inconclusive: 29.1 µM [cytotoxic, single point]. For `O=S(=O)(c1cccc(C(F)(F)F)c1)N1c2ccccc2-n2cccc2C1c1cccnc1` (centres undefined), the Potency was inconclusive: 20.6 µM [cytotoxic, single point]. In the case of `COc1ccc(Cl)cc1Nc1nc2ccc(C)cc2n2cnnc12`, the Potency is reported as “inactive”. In the case of `Cc1ccc(C)c(OCC(O)CN2CCN(CCN3C(=O)c4cccc5cccc(c45)C3=O)CC2)c1` (centres undefined), the Potency is reported as inconclusive: 29.1 µM [cytotoxic, single point]. For `CCOc1ccccc1NC(=O)C(C)n1nnc2sc3c(c2c1=O)CCCC3` (centres undefined), the Potency was “inactive”. For `Cc1ccc2[nH]c(=O)c(CN(Cc3cccs3)Cc3nnnn3CC3CCCO3)cc2c1` (centres undefined), the Potency was inconclusive: 20.6 µM [cytotoxic, partial curve]. With `CCOc1c2c(nc3ccc(Cl)cc13)CCC2` the Potency was inconclusive: 32.6 µM [cytotoxic, partial curve, poor fit]. For `O=C1C2C3C=CC(C3)C2C(=O)N1Cc1ccc(CN2C(=O)C3C4C=CC(C4)C3C2=O)cc1` (centres undefined), the Potency was inconclusive: 25.9 µM [cytotoxic, single point]. For `COCCn1c(C)cc(C(=O)CN2c3cccc4cccc(c34)S2(=O)=O)c1C`, the Potency was inconclusive: 7.31 µM [cytotoxic, partial curve]. In the case of `NC(=O)c1ccccc1NC(=S)NC(=O)c1ccc(Br)o1`, the Potency is reported as inconclusive: 14.6 µM [cytotoxic, partial curve, poor fit]. With `O=[N+]([O-])c1ccc(Cl)c(S(=O)(=O)NCCc2ccccn2)c1` the Potency was inconclusive: 5.17 µM [cytotoxic, full curve]. With `O=C(COc1cccc(Cl)c1)N1CCC(c2nc3ccccc3s2)CC1` the Potency was “inactive”. For `CC1(OC(=O)CCc2ccccc2)C(=O)C=C2C=C(c3ccc(C#N)cc3)N(CC3CC3)C=C2C1=O` (centres undefined), the Potency was inconclusive: 11.6 µM [cytotoxic, partial curve, poor fit]. In the case of `COc1ccc(CN(N=O)C2CC(=O)N(c3ccc(OC)cc3)C2=O)cc1` (centres undefined), the Potency is reported as “inactive”. With `Cc1nc2sc(C(=O)c3ccccc3)c(N)c2c2c1CCCC2` the Potency was inconclusive: 16.4 µM [cytotoxic, partial curve, poor fit]. In the case of `[2H]C([2H])(CCOS(N)(=O)=O)c1ccccc1`, the Potency is reported as inconclusive: 18.4 µM [rising, partial curve]. For `Cc1nc2sc(C(=O)Nc3ccccc3Cc3ccccc3)c(C)c2c(=O)[nH]1`, the Potency was inconclusive: 4.61 µM [cytotoxic, full curve]. For `Cc1cc(C)n(CCCNC(=O)CN(C)S(=O)(=O)c2ccc(Cl)cc2)n1`, the Potency was inconclusive: 11.6 µM [cytotoxic, partial curve, poor fit]. For `COc1ccccc1NC(=O)Cn1nnc(C(=O)NCCc2ccccc2)c1N`, the Potency was “inactive”. For `Cc1ccnc(NC(=S)N2CCN(c3cccc([N+](=O)[O-])c3)CC2)c1`, the Potency was “inactive”. For `C=CCSC(=C(C#N)C#N)c1cc2c([nH]1)CCCC2`, the Potency was inconclusive: 20.6 µM [cytotoxic, single point]. For `COc1cccc(-c2nn(-c3ccc(C)cc3)cc2C(=O)NCC2CCCO2)c1` (centres undefined), the Potency was inconclusive: 3.66 µM [cytotoxic, full curve]. With `O=C1CC2(CCN(C(=O)c3ccc(F)cc3)CC2)Oc2ccccc21` the Potency was inconclusive: 9.2 µM [cytotoxic, partial curve]. For `CCC12CN3CC(C)(CN(C1)C3c1c[nH]c3ccc(OC)cc13)C2=O` (centres undefined), the Potency was inconclusive: 0.58 µM [rising, full curve, poor fit]. With `c1ccc(-c2ccccc2OCCOCCN2CCCCC2)cc1` the Potency was inconclusive: 11.6 µM [cytotoxic, partial curve, poor fit]. For `COc1ccc(CCC(=O)N2CCN(c3cccc(C)c3C)CC2)cc1`, the Potency was inconclusive: 20.6 µM [cytotoxic, partial curve, poor fit]. For `O=C(CNC(=O)c1ccccc1F)NCc1cccnc1`, the Potency was inconclusive: 5.17 µM [rising, partial curve, poor fit]. In the case of `COc1ccc(-c2cc(C(=O)N3CCCc4ccccc43)no2)cc1OC`, the Potency is reported as inconclusive: 10 µM [cytotoxic, partial curve, poor fit].
